Results are given in words; binding and its absence hold for the method and conditions named. Binding seen in cells or lysates may run through a third protein. Some results given as binding are weak or reduced against the parent protein; the word gives no strength.
Target: FGFR1 (mouse (endogenous in mEpiSCs)) (UniProt P16092)
Test: co-IP; lysates of wild-type mEpiSCs or Cdh1-mEpiSCs in IP extraction buffer (25 mM Tris-HCl pH7.5, 100 m NaCl, 0.5% Triton X-100); anti-FGFR1 antibody with Dynabeads Protein G in 0.02% tween TBS; eluted in SDS buffer, Western blot

Amino acid sequences for entries named in this document (tags omitted). Residues count along the entry.
UniProt P16092, residues 22-822: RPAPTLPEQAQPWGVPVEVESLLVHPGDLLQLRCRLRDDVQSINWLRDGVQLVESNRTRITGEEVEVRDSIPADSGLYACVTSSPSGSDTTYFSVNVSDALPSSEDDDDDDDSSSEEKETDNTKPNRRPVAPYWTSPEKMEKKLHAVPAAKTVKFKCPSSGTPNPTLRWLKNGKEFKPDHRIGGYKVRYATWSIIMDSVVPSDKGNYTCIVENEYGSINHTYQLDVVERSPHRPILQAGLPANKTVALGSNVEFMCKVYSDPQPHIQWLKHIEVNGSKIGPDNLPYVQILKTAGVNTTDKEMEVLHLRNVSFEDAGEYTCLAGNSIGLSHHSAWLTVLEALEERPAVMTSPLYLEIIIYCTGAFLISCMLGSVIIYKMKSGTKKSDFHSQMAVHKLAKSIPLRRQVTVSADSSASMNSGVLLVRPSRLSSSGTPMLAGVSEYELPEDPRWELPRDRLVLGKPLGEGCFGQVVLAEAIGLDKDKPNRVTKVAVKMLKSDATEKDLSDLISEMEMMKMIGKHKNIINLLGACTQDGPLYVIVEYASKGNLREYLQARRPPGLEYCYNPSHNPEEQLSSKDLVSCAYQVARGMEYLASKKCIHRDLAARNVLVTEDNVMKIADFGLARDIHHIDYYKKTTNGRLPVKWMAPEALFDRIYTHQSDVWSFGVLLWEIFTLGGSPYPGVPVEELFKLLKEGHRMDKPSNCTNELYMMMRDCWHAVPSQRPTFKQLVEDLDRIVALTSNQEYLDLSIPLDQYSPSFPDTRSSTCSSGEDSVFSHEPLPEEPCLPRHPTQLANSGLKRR
UniProt P15116, residues 160-906: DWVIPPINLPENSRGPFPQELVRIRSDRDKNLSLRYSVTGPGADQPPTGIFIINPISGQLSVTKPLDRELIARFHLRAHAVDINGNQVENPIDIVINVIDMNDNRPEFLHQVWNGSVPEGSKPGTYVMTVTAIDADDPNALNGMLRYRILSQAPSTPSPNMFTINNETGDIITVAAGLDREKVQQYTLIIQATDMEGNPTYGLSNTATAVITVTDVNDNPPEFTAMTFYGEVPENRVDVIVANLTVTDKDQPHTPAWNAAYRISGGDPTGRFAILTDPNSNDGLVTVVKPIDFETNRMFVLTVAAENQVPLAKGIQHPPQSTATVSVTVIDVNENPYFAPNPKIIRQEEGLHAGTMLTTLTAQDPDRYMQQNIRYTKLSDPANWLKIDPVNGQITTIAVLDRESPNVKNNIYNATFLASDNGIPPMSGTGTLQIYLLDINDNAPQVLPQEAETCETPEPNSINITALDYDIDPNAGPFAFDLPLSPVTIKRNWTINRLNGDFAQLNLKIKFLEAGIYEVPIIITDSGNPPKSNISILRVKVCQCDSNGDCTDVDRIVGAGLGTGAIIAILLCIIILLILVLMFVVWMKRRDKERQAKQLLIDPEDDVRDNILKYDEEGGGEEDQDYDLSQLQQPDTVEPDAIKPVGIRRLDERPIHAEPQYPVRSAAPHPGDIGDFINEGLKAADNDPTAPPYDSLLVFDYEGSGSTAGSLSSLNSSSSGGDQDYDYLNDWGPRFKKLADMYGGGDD

binding: binds
Substance: Cadherin 2 (Cdh2) (from UniProt P15116 160-906)
